Publication PMC4583546
No constants are given. Whether binding was seen depends on the method and setting. Binding seen in cells or lysates may run through a third protein. Some results given as binding are weak or reduced against the parent protein; the word gives no strength.

Sequences of proteins named here, by UniProt entry; tags and fusion partners are left off.
UniProt Q96MN2: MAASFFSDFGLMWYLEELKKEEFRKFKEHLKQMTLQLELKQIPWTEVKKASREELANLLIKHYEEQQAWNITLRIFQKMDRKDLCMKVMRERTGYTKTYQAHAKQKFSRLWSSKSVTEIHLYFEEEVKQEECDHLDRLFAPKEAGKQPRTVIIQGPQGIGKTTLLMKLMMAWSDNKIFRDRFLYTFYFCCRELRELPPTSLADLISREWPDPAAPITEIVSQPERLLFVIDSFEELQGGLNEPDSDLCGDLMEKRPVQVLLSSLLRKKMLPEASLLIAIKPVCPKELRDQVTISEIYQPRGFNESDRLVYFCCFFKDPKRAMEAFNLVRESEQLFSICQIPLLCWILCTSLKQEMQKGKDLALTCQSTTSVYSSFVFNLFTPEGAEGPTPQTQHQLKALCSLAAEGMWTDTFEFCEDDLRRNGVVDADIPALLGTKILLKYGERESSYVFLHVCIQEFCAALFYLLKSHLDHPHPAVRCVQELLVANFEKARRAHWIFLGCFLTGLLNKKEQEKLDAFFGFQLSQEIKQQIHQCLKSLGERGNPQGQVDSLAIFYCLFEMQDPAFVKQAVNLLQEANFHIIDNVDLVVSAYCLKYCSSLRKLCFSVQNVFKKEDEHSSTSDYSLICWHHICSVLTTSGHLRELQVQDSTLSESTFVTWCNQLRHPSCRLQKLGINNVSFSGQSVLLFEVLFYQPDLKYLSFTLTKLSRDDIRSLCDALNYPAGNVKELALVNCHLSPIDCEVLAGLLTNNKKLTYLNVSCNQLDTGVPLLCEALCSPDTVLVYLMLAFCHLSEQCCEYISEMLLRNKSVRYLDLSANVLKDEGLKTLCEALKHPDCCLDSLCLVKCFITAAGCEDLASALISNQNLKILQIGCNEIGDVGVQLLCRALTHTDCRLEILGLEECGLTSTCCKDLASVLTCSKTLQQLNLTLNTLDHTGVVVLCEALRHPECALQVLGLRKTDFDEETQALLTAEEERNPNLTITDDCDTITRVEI

Legend:
[1] = target: T1, TBK1 phosphorylated at Ser527 by DYRK2 (human) (UniProt Q9UHD2); experiment: co-IP; 293 cells transiently transfected with HA- and Flag-tagged plasmids; lysis in 20 mM Tris pH 7.5, 150 mM NaCl, 1% Triton, 1 mM EDTA; indicated antibody (anti-Flag in Fig 5B, 5D) or control IgG with protein G agarose, 4 h at 4°C; washes with 0.5 M NaCl; immunoblot with anti-HA or anti-Flag; Fig 6E with MG132, with or without overexpressed DYRK2
T1 sequence (chain, phosphoserine at 527 (by DYRK2)): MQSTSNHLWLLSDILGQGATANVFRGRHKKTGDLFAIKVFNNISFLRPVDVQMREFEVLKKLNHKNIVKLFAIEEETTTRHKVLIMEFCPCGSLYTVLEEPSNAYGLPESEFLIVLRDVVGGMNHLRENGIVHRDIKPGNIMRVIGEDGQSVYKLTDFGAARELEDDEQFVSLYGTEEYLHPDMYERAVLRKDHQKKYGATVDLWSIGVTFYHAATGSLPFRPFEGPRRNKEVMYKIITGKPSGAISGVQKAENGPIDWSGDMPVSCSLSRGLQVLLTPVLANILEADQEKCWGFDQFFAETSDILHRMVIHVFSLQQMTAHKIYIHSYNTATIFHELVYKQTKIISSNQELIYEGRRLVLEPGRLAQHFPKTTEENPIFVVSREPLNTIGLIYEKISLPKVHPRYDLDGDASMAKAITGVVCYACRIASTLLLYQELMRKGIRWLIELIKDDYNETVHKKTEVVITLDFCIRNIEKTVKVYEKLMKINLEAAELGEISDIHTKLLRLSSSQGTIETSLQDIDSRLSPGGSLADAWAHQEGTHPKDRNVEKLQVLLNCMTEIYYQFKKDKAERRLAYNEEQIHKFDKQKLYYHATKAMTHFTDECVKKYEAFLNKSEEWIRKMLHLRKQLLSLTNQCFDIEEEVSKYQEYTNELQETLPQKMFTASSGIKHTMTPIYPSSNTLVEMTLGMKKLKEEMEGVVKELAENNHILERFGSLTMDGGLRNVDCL

[2] = target: T2, TBK1 S527A mutant (human) (UniProt Q9UHD2); experiment: co-IP
T2 sequence: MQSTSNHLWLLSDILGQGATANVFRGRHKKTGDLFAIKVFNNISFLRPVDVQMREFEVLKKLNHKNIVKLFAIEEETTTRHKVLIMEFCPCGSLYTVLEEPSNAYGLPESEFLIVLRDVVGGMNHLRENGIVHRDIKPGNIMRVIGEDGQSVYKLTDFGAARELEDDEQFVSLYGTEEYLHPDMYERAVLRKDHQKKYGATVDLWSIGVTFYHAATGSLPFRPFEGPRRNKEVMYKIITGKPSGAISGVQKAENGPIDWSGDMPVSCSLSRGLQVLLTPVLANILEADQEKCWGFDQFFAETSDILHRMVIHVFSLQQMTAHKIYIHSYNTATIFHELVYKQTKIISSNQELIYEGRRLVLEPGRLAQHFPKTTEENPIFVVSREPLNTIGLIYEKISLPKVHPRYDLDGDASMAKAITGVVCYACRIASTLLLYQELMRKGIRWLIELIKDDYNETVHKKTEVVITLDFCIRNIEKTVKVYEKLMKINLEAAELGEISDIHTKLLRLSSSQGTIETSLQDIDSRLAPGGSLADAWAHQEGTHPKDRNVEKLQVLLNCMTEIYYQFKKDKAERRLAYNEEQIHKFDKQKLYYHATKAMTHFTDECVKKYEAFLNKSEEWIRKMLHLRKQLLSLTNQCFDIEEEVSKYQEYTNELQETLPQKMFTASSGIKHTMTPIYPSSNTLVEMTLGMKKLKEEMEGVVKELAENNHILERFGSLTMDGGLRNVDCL

[3] = target: T3, DYRK2 (endogenous) (human (endogenous in 293)) (UniProt Q92630); experiment: co-IP; endogenous proteins; untransfected 293 cells treated with MG132 and infected with SeV, 8 to 12 h after infection; precipitated with anti-DYRK2 antibody or preimmune serum, blotted with anti-TBK1
T3 sequence: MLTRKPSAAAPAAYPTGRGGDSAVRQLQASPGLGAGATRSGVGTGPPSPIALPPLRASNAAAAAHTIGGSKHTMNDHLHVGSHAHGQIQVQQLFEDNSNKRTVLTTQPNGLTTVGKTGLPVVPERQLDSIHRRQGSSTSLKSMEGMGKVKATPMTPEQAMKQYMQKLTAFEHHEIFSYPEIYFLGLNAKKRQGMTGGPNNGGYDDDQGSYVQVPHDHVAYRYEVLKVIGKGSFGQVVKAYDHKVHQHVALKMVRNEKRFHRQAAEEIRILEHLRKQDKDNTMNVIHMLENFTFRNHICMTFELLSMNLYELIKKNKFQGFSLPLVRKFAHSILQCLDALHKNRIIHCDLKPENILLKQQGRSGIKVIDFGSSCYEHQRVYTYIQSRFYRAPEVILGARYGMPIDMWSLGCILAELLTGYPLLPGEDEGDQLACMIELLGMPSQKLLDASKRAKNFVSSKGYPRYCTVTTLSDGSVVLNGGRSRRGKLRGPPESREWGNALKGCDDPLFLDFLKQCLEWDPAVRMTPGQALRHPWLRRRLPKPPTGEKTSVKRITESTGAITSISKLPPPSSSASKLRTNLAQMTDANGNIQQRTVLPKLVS

Question: How did the binding [1] turn out when NLRP4 (from UniProt Q96MN2 1-994) was run?
Answer: The binding was “binds”.

Question: And the binding [2]?
Answer: Its binding is “no binding”.

B1: TBK1 (endogenous) (enzyme, UniProt Q9UHD2 1-729)
chain: MQSTSNHLWLLSDILGQGATANVFRGRHKKTGDLFAIKVFNNISFLRPVDVQMREFEVLKKLNHKNIVKLFAIEEETTTRHKVLIMEFCPCGSLYTVLEEPSNAYGLPESEFLIVLRDVVGGMNHLRENGIVHRDIKPGNIMRVIGEDGQSVYKLTDFGAARELEDDEQFVSLYGTEEYLHPDMYERAVLRKDHQKKYGATVDLWSIGVTFYHAATGSLPFRPFEGPRRNKEVMYKIITGKPSGAISGVQKAENGPIDWSGDMPVSCSLSRGLQVLLTPVLANILEADQEKCWGFDQFFAETSDILHRMVIHVFSLQQMTAHKIYIHSYNTATIFHELVYKQTKIISSNQELIYEGRRLVLEPGRLAQHFPKTTEENPIFVVSREPLNTIGLIYEKISLPKVHPRYDLDGDASMAKAITGVVCYACRIASTLLLYQELMRKGIRWLIELIKDDYNETVHKKTEVVITLDFCIRNIEKTVKVYEKLMKINLEAAELGEISDIHTKLLRLSSSQGTIETSLQDIDSRLSPGGSLADAWAHQEGTHPKDRNVEKLQVLLNCMTEIYYQFKKDKAERRLAYNEEQIHKFDKQKLYYHATKAMTHFTDECVKKYEAFLNKSEEWIRKMLHLRKQLLSLTNQCFDIEEEVSKYQEYTNELQETLPQKMFTASSGIKHTMTPIYPSSNTLVEMTLGMKKLKEEMEGVVKELAENNHILERFGSLTMDGGLRNVDCL
Question: B1 was tested. Which binding [3] did it give?
Answer: Its binding is “binds”.
